Experimental data: patent publication US20190352387A1
These are yes or no findings as the source states them, for the method shown. Some entries that bind do so weakly or less than the wild type.

By UniProt entry, the sequences of proteins in these tests, tags left out. Where a name states a change or a piece, a line headed by the entry shows the natural chain unless it says otherwise.
UniProt Q99P67: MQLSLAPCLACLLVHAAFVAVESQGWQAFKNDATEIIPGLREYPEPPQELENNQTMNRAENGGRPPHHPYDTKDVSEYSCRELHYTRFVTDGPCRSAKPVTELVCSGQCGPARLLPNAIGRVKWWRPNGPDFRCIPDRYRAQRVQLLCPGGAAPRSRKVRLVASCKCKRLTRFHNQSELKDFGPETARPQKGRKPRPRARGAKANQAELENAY

Key:
[1] = biological target: Recombinant rat sclerostin (rat) (UniProt Q99P67); test: SPR (Biacore T200), 37 C, dissociation at pH 5.8 after pH 7.4; legend: # refers to slow dissociation, koff at pH 5.8 cannot be determined
[2] = biological target: Recombinant rat sclerostin (rat) (UniProt Q99P67); test: SPR (Biacore T200), 37 C, pH 5.8; legend: n.d. refers to weak binding, KD cannot be determined

Row | binding [1] | binding [2] | Binder
1 | binds | – | mabA (antibody, V domains shown) VH: EVQLVQSGAEVKKPGASVKVSCKASGYTFTDYNMHWVRQAPGQGLEWMGEINPNSGGAGYNQKFKGRVTMTTDTSTSTAYMELRSLRSDDTAVYYCARLGYDDIYDDWYFDVWGQGTTVTVSS VL: DIQMTQSPSSLSASVGDRVTITCRASQDISNYLNWYQQKPGKAPKLLIYYTSRLLSGVPSRFSGSGSGTDFTLTISSLQPEDFATYYCQQGDTLPYTFGGGTKVEIK
2 | binds | – | mabA_NpH3 (antibody, V domains shown) VH: EVQLVQSGAEVKKPGASVKVSCKASGYTFTDYNMHWVRQAPGQGLEWMGEINPNSGGAGYNQKFKGRVTMTTDTSTSTAYMELRSLRSDDTAVYYCARLGYDDIYDDWYFDVWGQGTTVTVSS VL: DIQMTQSPSSLSASVGDRVTITCRASQDISNYLNWYQQKPGKAPKLLIYYHSRLLSGVPSRFSGSGSGTDFTLTISSLQPEDFATYYCHQGDTLPYTFGGGTKVEIK
3 | – | binds | mabA_pH3 (antibody, V domains shown) VH: EVQLVQSGAEVKKPGASVKVSCKASGYTFTDYNMHWVRQAPGQGLEWMGEINPHSGHAGYNQKFKGRVTMTTDTSTSTAYMELRSLRSDDTAVYYCARLHYDDIHDDWYFDVWGQGTTVTVSS VL: DIQMTQSPSSLSASVGDRVTITCRASHDISNYLNWYQQKPGKAPKLLIYYTSRLLSGVPSRFSGSGSGTDFTLTISSLQPEDFATYYCQQGDTLPYTFGGGTKVEIK
4 | binds | – | mabA_NpH2 (antibody, V domains shown) VH: EVQLVQSGAEVKKPGASVKVSCKASGYTFTDYNMHWVRQAPGQGLEWMGEINPNSGGAGYNQKFKGRVTMTTDTSTSTAYMELRSLRSDDTAVYYCARLGYDDIYDDWYFDVWGQGTTVTVSS VL: DIQMTQSPSSLSASVGDRVTITCRASQDISNYLNWYQQKPGKAPKLLIYHTSRLLSGVPSRFSGSGSGTDFTLTISSLQPEDFATYYCQQGDTLPYTFGGGTKVEIK
